The full ranking holds about 33,000 sequences; the median of “E-score (-0.5 to 0.5)” is about -0.0014, and the highest 2% start at about 0.25. This is one part of the list.
Biological target: T1, Cad1 (UniProt P24813)
T1 sequence: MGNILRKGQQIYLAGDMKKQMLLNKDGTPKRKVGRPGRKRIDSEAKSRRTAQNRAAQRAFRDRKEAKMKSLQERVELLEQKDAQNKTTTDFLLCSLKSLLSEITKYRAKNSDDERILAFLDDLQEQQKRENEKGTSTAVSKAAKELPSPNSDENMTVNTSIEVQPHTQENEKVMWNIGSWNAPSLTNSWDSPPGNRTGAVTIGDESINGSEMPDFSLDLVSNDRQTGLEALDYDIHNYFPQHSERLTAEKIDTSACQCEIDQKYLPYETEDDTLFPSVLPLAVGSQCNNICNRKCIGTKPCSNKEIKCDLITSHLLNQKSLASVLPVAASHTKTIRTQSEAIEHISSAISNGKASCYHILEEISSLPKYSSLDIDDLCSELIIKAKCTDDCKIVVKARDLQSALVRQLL
Test: PBM E-score (8-mer binding enrichment) (E-score (-0.5 to 0.5)); higher = stronger / more preferred TF binding
Settings: protein concentration: 100 nM; construct: GST-full length
Procedure, shortened: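 PURExpress in vitro transcription/translation supplied GST-tagged yeast transcription factors, either full-length or DNA-binding domain. Applied at about 100-200 nM to universal all-10-mer Agilent arrays double-stranded by primer extension, the bound protein was detected with fluorescent anti-GST. E-scores, modified Wilcoxon-Mann-Whitney statistics, were given by the Universal PBM Analysis Suite to ungapped eight-base words pooled with their reverse complements after masliner normalisation.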

Compared with GCTCTCTA, CATTAGCC is lower in “PBM E-score” value: -0.177 for the first, -0.223 for the second.

Compared with AGCCGACC, CCACTGAA is higher in “PBM E-score” value: -0.252 for the first, 0.0378 for the second.

First: CGAAAACA
Second: CAGGCTAA
The “PBM E-score” value of the first is higher: 0.0957 for the first, -0.266 for the second.

Compared with GTTACCTA, AATTTCCC is lower in “PBM E-score” value: 0.0949 for the first, 0.0593 for the second.

First: ATCCCCTA
Second: AGACCGGA
The “PBM E-score” value of the first is lower: -0.225 for the first, -0.062 for the second.

Going from AACCGGTC to CTTGAAAA, the “PBM E-score” value rises from 0.0794 to 0.0878.

Going from ATTTCCGC to CGAGAGCA, the “PBM E-score” value falls from 0.123 to -0.0688.

Going from AGATCCGA to CGCGCCCG, the “PBM E-score” value falls from -0.0446 to -0.0881.

Compared with ACGCTCAA, AGCACAAG is lower in “PBM E-score” value: 0.00381 for the first, -0.238 for the second.

Compared with CTGCCACA, CGCAAATC is higher in “PBM E-score” value: -0.114 for the first, 0.0719 for the second.

Going from AAGCCTGT to CGACTGTC, the “PBM E-score” value falls from -0.0352 to -0.0734.

Going from CGCCGCAC to TGCGACAA, the “PBM E-score” value rises from -0.15 to 0.0212.

Compared with GAAGAAGC, AGGGGTTG is lower in “PBM E-score” value: -0.125 for the first, -0.184 for the second.

First: ATGGTACA
Second: ACCCGAAC
The “PBM E-score” value of the first is higher: -5e-05 for the first, -0.00196 for the second.

Going from GCTACTAA to ATAGCATA, the “PBM E-score” value rises from 0.0213 to 0.153.

First: GGAGCCAA
Second: GCCGGGGA
The “PBM E-score” value of the first is higher: -0.187 for the first, -0.24 for the second.

Going from AACGCGGA to CGCCCCCA, the “PBM E-score” value falls from 0.0805 to -0.397.

First: ATTAGGGG
Second: GATTATCC
The “PBM E-score” value of the first is lower: -0.0485 for the first, 0.167 for the second.

Compared with CCACGGGA, CACCCACA is higher in “PBM E-score” value: -0.115 for the first, 0.023 for the second.

First: AGGTACAC
Second: TAGACCCA
The “PBM E-score” value of the first is lower: -0.18 for the first, -0.0672 for the second.

Compared with CTCTAGCA, CGGCCGTA is higher in “PBM E-score” value: -0.263 for the first, 0.0738 for the second.

First: AATCTTGG
Second: ACTGTAGC
The “PBM E-score” value of the first is higher: 0.0234 for the first, -0.136 for the second.

Going from AAAAAAAA to AGGAAGGG, the “PBM E-score” value falls from 0.214 to -0.288.

Compared with TCCTCCCA, CAGTGAGC is higher in “PBM E-score” value: -0.144 for the first, -0.0579 for the second.

First: CCGCCAGG
Second: GGAATCCA
The “PBM E-score” value of the first is lower: -0.122 for the first, -0.0693 for the second.

First: ACGATTTA
Second: ACGTATGA
The “PBM E-score” value of the first is higher: 0.185 for the first, 0.144 for the second.

First: GGTAACGA
Second: CGTTCCCC
The “PBM E-score” value of the first is higher: 0.0225 for the first, -0.0338 for the second.

First: TGAATGCA
Second: CTACGGCC
The “PBM E-score” value of the first is higher: 0.185 for the first, -0.0892 for the second.

First: CGGGGCAC
Second: CCGGAATC
The “PBM E-score” value of the first is lower: -0.19 for the first, 0.0358 for the second.

First: ACGAGACT
Second: AAGGAGAT
The “PBM E-score” value of the first is higher: -0.108 for the first, -0.12 for the second.

First: CTAGCAAA
Second: AAGCCACT
The “PBM E-score” value of the first is higher: 0.021 for the first, -0.118 for the second.

Compared with ACCCCTCC, AAGCAGAA is higher in “PBM E-score” value: -0.109 for the first, 0.121 for the second.

First: CCTAGTGC
Second: AATTGGGC
The “PBM E-score” value of the first is lower: -0.0393 for the first, 0.141 for the second.

Going from ACCCTACA to CCGCAGGC, the “PBM E-score” value rises from -0.118 to 0.0726.

Going from CATTCGAC to AACGTCTG, the “PBM E-score” value rises from 0.0659 to 0.152.

First: AGACAGTA
Second: AGGGGTAG
The “PBM E-score” value of the first is higher: -0.0503 for the first, -0.238 for the second.

Going from GATTTTCA to GAAAGCTA, the “PBM E-score” value falls from 0.0863 to -0.158.

Compared with AATCCTAA, TCCACAAA is higher in “PBM E-score” value: 0.0253 for the first, 0.18 for the second.

First: ACTCAACT
Second: AATATCAT
The “PBM E-score” value of the first is lower: 0.115 for the first, 0.156 for the second.

Compared with ATTCTTAG, ACAAACTA is higher in “PBM E-score” value: -0.0704 for the first, 0.0519 for the second.

Compared with GGCATCTA, GGACGTCA is lower in “PBM E-score” value: -0.0444 for the first, -0.159 for the second.

First: AATTCTCG
Second: CCCCCGTC
The “PBM E-score” value of the first is higher: 0.171 for the first, -0.382 for the second.

Going from ACACCCTG to GGCATGAA, the “PBM E-score” value rises from -0.133 to -0.00429.

Going from GATTAACC to AATGCAAA, the “PBM E-score” value rises from 0.02 to 0.123.

Compared with CCGCGTCC, AATGTAAT is higher in “PBM E-score” value: 0.0699 for the first, 0.324 for the second.

First: AGAACGCC
Second: TCTGGCAA
The “PBM E-score” value of the first is lower: -0.203 for the first, -0.0126 for the second.

Compared with AGTTCTCA, TATACCAA is lower in “PBM E-score” value: 0.0966 for the first, 0.0311 for the second.

First: GTATTGAA
Second: CGGCGAAG
The “PBM E-score” value of the first is higher: 0.173 for the first, -0.0239 for the second.

Compared with AAAAAATA, AGGTTATG is lower in “PBM E-score” value: 0.0934 for the first, -0.0582 for the second.

Compared with CGCGCGTA, AACAAATC is lower in “PBM E-score” value: 0.152 for the first, 0.151 for the second.

Compared with TGTCTCAA, GTCTACCA is lower in “PBM E-score” value: 0.00027 for the first, -0.0522 for the second.

First: GCTATCAA
Second: GAAGCTAA
The “PBM E-score” value of the first is higher: 0.24 for the first, -0.073 for the second.

Compared with AGCTCGAT, GATCTGGA is lower in “PBM E-score” value: 0.189 for the first, -0.0625 for the second.

Going from ACAGTATA to GCTACTCC, the “PBM E-score” value falls from 0.0158 to -0.0816.

First: CTGTAAAA
Second: ATGGTCTC
The “PBM E-score” value of the first is lower: 0.0542 for the first, 0.102 for the second.

Compared with ATCGAGCA, GGAGCCAC is lower in “PBM E-score” value: 0.0731 for the first, -0.192 for the second.

First: ACTATTAT
Second: ACTGGTTC
The “PBM E-score” value of the first is lower: 0.063 for the first, 0.181 for the second.

Going from CCGCTGCG to CGCAGGCA, the “PBM E-score” value rises from -0.0651 to -0.0132.

Going from ATACGTAA to CCAACCAG, the “PBM E-score” value falls from 0.2 to -0.209.

First: CAAATGGG
Second: CACGCCGA
The “PBM E-score” value of the first is higher: 0.0861 for the first, -0.0716 for the second.

First: GGGCACCA
Second: CGGTCGCA
The “PBM E-score” value of the first is lower: -0.17 for the first, -0.081 for the second.

Compared with GTTCCACA, CCGACACG is higher in “PBM E-score” value: -0.098 for the first, -0.0839 for the second.

First: ATGGGTGA
Second: CTCTCTAC
The “PBM E-score” value of the first is lower: -0.0284 for the first, 0.127 for the second.

First: CCGGCGAA
Second: CGGTCCCA
The “PBM E-score” value of the first is higher: 0.203 for the first, -0.185 for the second.

First: AATCCGGG
Second: ACCCTGTC
The “PBM E-score” value of the first is higher: -0.0636 for the first, -0.194 for the second.

Going from AGTAAGTA to CGGCTACA, the “PBM E-score” value falls from 0.0942 to -0.0379.

Going from GCTTTTCA to AGGCACTC, the “PBM E-score” value falls from 0.0738 to -0.197.

First: CTCTCCCC
Second: CGTCACGA
The “PBM E-score” value of the first is lower: -0.372 for the first, 0.152 for the second.

Compared with GTCACGTA, CTCGCGAG is higher in “PBM E-score” value: 0.0623 for the first, 0.279 for the second.

Going from AATGTTGT to AATAGATA, the “PBM E-score” value falls from 0.116 to 0.109.

Compared with AACACTAC, CGGCACAG is lower in “PBM E-score” value: 0.186 for the first, 0.00204 for the second.

First: GAGATTTA
Second: GTCGTACA
The “PBM E-score” value of the first is lower: 0.00324 for the first, 0.0242 for the second.

First: ATGCGGAA
Second: CCACACGG
The “PBM E-score” value of the first is higher: 0.0705 for the first, -0.0545 for the second.

Going from AGAATCGC to CACTATGC, the “PBM E-score” value falls from 0.148 to 0.0156.

Compared with AGCCGTGC, ACTTAATA is higher in “PBM E-score” value: -0.0286 for the first, 0.186 for the second.

First: ACGCCAAA
Second: CAAAGCTA
The “PBM E-score” value of the first is lower: 0.00977 for the first, 0.0163 for the second.

Compared with CCGCGAAA, GGATTGAC is higher in “PBM E-score” value: 0.0147 for the first, 0.0285 for the second.

Going from AGAAGCCA to ATGAGGAG, the “PBM E-score” value falls from 0.0458 to -0.158.

Compared with CCCGTCAC, ATCGATGC is higher in “PBM E-score” value: -0.146 for the first, 0.184 for the second.

Going from CCGACTAG to AAATTTAT, the “PBM E-score” value rises from -0.152 to 0.171.

Going from CTTAATGA to AGCGGCAT, the “PBM E-score” value rises from 0.00816 to 0.194.

Going from GACGATAA to AGTATCAC, the “PBM E-score” value falls from 0.212 to 0.182.

Going from GATCTTCC to AATCACGG, the “PBM E-score” value rises from -0.149 to 0.248.

Compared with GTCCAGGA, GCATTTCC is higher in “PBM E-score” value: -0.0388 for the first, 0.174 for the second.

First: TTCACCAA
Second: AAACTGCC
The “PBM E-score” value of the first is higher: -0.00247 for the first, -0.159 for the second.

Going from CGTTCAGA to AGTACAAA, the “PBM E-score” value rises from -0.149 to -0.11.

Reference: the supplement of paper PMC3334620
